Assay results reported in US20110136259A1, “IMMUNOASSAY FOR CROSS-REACTING SUBSTANCES” (LIFE TECHNOLOGIES CORPORATION, priority 2007, published 2011).
For at least one compound, name, drawing or mass did not settle the structure.

Experiments:
Assay type in all cases: binding
[1] = system: Antibody 10 (clone A29220314P from BiosPacific); test: Cross reactivity on anti-cortisol antibody microarray, antibody 10; conditions: determined by 2000 ng/mL sample
Description: (§1) The independent variables, these are x1 and x2 in the model are the various concentrations levels, where x1 is the concentration level of cortisol and x2 is the concentration level of the cross-reactant (in this case either 6AMP or prednisolone). The dependent variable, i.e. the variable that we are trying to predict, is the “apparent” cortisol concentration, which is estimated from the concentration-signal 4 parameter logistic regression model. […] These equations are given by,
(§2) In terms of the model β1 is interpreted as the amount that the “apparent” cortisol is increase per ng/ml increase of cortisol and similarly β2 is interpreted as the amount that the “apparent” cortisol is increased per ng/ml increase of cross-reactant. Finally to estimate the percent cross action it is given by:
(§3) The antibody concentrations were 125 ug/mL in buffered solutions comprising phosphate-buffered saline (PBS) and 1× Whatman Protein Arraying Buffer. The antibody solutions were applied to the slide surface using a Scienion sciflexarryer S5 piezo printer. The average spot sizes were 150 um. The antibodies within a sub array were printed in replicates of five spots, and each slide contained twelve sub arrays arranged in two columns of six. The relative spacing of the sub arrays was nine millimeters, equivalent to the spacing of a 96-well micro titer plate.
(§4) The micro-array slides were assembled with a superstructure that creates individual wells that surround the sub array (Slide Incubation Chambers, Whatman). The slides were blocked for one hour with micro array blocking buffer (VWR) and then washed with TRIS-buffered saline with Tween-20 (TBST). […] The intensities of fluorescence associated with each spot was quantified using a micro-array reader such as an Axon 4000B or 4200AL. […]
(§5) Subsequently, several cortisol antibodies were synthesized and relative cross reactivities were determined for the synthetic glucocorticoids obtained via the same described the Beckmann system (Tables 4 & 5). […]

antibody 13 = test: Cross reactivity on anti-cortisol antibody microarray, antibody 13; conditions: determined by 2000 ng/mL sample
Description: (§6) This model is used to estimate the cross-reaction percentage. The independent variables, these are x1 and x2 in the model are the various concentrations levels, where x1 is the concentration level of cortisol and x2 is the concentration level of the cross-reactant (in this case either 6AMP or prednisolone). The dependent variable, i.e. the variable that we are trying to predict, is the “apparent” cortisol concentration, which is estimated from the concentration-signal 4 parameter logistic regression model. We fit this model using standard multiple linear regression methods to estimate β1 and β2. These equations are given by,
as §2, §3
(§7) The micro-array slides were assembled with a superstructure that creates individual wells that surround the sub array (Slide Incubation Chambers, Whatman). […] The intensities of fluorescence associated with each spot was quantified using a micro-array reader such as an Axon 4000B or 4200AL. […]
as §5

antibody 17 = test: Cross reactivity on anti-cortisol antibody microarray, antibody 17; conditions: determined by 2000 ng/mL sample
Description: as §6, §2, §3, §7, §5

[2] = system: Antibody 7 (clone XM210 from Abcam); test: Cross reactivity on anti-cortisol antibody microarray, antibody 7; conditions: determined by 2000 ng/mL sample
Description: as §1, §2, §3
as §4, with “(TBST). Cortisol-containing samples or calibrators were diluted 1 to 20 into a buffered solution that contained the following: TBST, 0.1% SDS, 3.3 nM cortisol 3-CMO Alexa Fluor 555, and 3.3 nM cortisol 21-HS Alexa Fluor 647.” for “(TBST).”

[3] = system: Antibody 9 (clone F4P1A3 from EMD Biosciences); test: Cross reactivity on anti-cortisol antibody microarray, antibody 9; conditions: determined by 2000 ng/mL sample
Description: as §1, §2, §3, §4, §5

[4] = system: Beckmann Access (commercial cortisol immunoassay); test: Synthetic glucocorticoid cross reactivity in Beckman Access cortisol immunoassay; design: Access Cortisol Value: unit: ng/mL; conditions: for Access Cortisol Value: Method 1: all synthetics present at 2000 ng/mL, apparent cortisol read by Beckmann Access; for Percent cross reactivity, Access: determined by 2000 ng/mL sample; for % Reactivity (Method 1): synthetic present at 2000 ng/mL, (cortisol value)/(concentration of analyte) x 100%
Experimental: Initial synthetic glucocorticoid antibody cross reactivity data included LC-MS/MS analysis of patient samples was followed by analysis via the Beckman immunoassay system, and relative cross reactivities were calculated for each of the synthetic glucocorticoids of interest. Cross reactivities were also calculated based on a linearity study of each of the major cross reactive synthetic glucocorticoids to ensure that the values obtained for each were viable. (Table 1).
LC-MS/MS analysis of patient samples was followed by analysis using the Beckman Access (commercial assay), and relative cross reactivities were calculated for each of the synthetic glucocorticoids of interest. Synthetic positive patient samples were then mimicked in stripped serum for cortisol, cortisone and exogenous synthetic glucocorticoids. […] The linear relationship for these systems was examined and illustrated.

Row | Compound | Percent cross reactivity, antibody 10 [1] | Percent cross reactivity, antibody 13 (antibody 13) | Percent cross reactivity, antibody 17 (antibody 17) | Percent cross reactivity, antibody 7 [2] | Percent cross reactivity, antibody 9 [3] | Access Cortisol Value [4] | Percent cross reactivity, Access [4] | % Reactivity (Method 1) [4]
1 | CC1(C)O[C@@H]2C[C@H]3[C@@H]4CCC5=CC(=O)C=C[C@]5(C)[C@@]4(F)[C@@H](O)C[C@]3(C)[C@]2(C(=O)CO)O1 [SYN-3, Triamcinolone acetonide] | 0% | 1% | 0% | 0% | 1% | 0 | 0% | 0%
2 | C[C@H]1C[C@H]2[C@@H]3CCC4=CC(=O)C=C[C@]4(C)[C@@]3(F)[C@@H](O)C[C@]2(C)[C@@]1(O)C(=O)CO [SYN-9, Betamethasone] | 0% | 0% | 0% | 0% | 0% | 0.8 | 0% | 0.04%
3 | C[C@@H]1C[C@H]2[C@@H]3CCC4=CC(=O)C=C[C@]4(C)[C@@]3(F)[C@@H](O)C[C@]2(C)[C@@]1(O)C(=O)CO [SYN-10, Dexamethasone] | 0% | 6% | 0% | 6% | 0% | 0.5 | 0% | 0.025%
